Among the data in patent US20090093002A1 are binding values, retold here.

Amino acid sequences for entries named in this document (tags omitted). Residues count along the entry.
UniProt P05067, residues 672-713: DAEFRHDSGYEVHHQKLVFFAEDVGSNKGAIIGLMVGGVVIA

Assay [1] concerns the target Amyloid Beta (antigen of the Amyloid Beta ELISA) (UniProt P05067). The experiment in a line: Amyloid Beta ELISA, antibody purified from stable NS0 cell line. A general note: ELISA stands for enzyme-linked immunosorbent assay.
Assay [2] shares this target. The experiment in a line: Amyloid Beta ELISA, conditioned medium from transient transfection.
For assay [3], the target named is amyloid plaques of brains from AD patients (human) (UniProt P05067). Nature of the assay: immunohistochemistry, paraffin sections of human brain pretreated with formic acid.
Assay [4] addresses T1, peptide A15 of the second library (aa 12-20 of Aβ, aa 15 to alanine).
T1 sequence (peptide, biotinylated): VHHAKLVFF
Nature of the assay: ELISA on biotinylated alanine-substituted peptides, hC2 at 200 ng/ml.

The target of assay [5] is T2, peptide A18 of the second library (aa 12-20 of Aβ, aa 18 to alanine).
T2 sequence (peptide, biotinylated): VHHQKLAFF
The description is as above.

The target of assay [6] is T3, peptide p13-21 G21 of the third library (aa 13-21 of Aβ, aa 21 to glycine).
T3 sequence (peptide, biotinylated): HHQKLVFFG
The experiment in a line: ELISA on biotinylated peptides of the third library, hC2 at 200 ng/ml.

Assay [7] deals with T4, peptide p14-22 A22 of the third library (aa 14-22 of Aβ, aa 22 to alanine).
T4 sequence (peptide, biotinylated): HQKLVFFAA
The description is as above.

The target of assay [8] is T5, peptide 12 of the first library (aa 12-20 of Aβ).
T5 sequence (peptide, biotinylated): VHHQKLVFF
Nature of the assay: ELISA on biotinylated peptides on streptavidin plates, hC2 at 200 ng/ml.

Assay [9] deals with T6, peptide 13 of the first library (aa 13-21 of Aβ).
T6 sequence (peptide, biotinylated): HHQKLVFFA
Described as above.

Assay [10] deals with T7, peptide 14 of the first library (aa 14-22 of Aβ).
T7 sequence (peptide, biotinylated): HQKLVFFAE
Described as above.

The target of assay [11] is T8, peptide 15 of the first library (aa 15-23 of Aβ).
T8 sequence (peptide, biotinylated): QKLVFFAED
The assay is described as above.

Assay [12] deals with T9, peptide 16 of the first library (aa 16-24 of Aβ).
T9 sequence (peptide, biotinylated): KLVFFAEDV
The description is as above.

No constants are given. Whether binding was seen depends on the method and setting. Some binding calls cover weakened binding; strength is not graded here.

B1: chimeric antibody C2 ChVH AF/ChVK (antibody, human IgG4 S228P, kappa, V domains shown)
VH: EVQLVESGGGLVQPGGSLKLSCAASGFTFSSYGMSWVRQTPDKRLELVASINSNGGSTYYPDSVKGRFTISRDNAKNTLYLQMSSLKSEDTAMYYCASGDYWGQGSTLTVSS
VL: DVVMTQTPLSLPVSLGDQASISCRSSQSLVYSNGDTYLHWYLQKPGQSPKLLIYKVSNRFSGVPDRFSGSGSGTDFTLKISRVEAEDLGVYFCSQSTHVPWTFGGGTKLEIKR
For the molecule B1, the binding entry in [1], in [2] and in assay [3] was “binds” throughout.

B2: humanized antibody C2 HuVH2/HuVK4 (antibody, human IgG4 S228P, kappa, V domains shown)
VH: EVQLVESGGGLVQPGGSLRLSCAASGFTFSSYGMSWVRQAPGKGLEWVASINSNGGSTYYPDSVKGRFTISRDNAKNSLYLQMNSLRAEDTAVYYCASGDYWGQGTTVTVSS
VL: DIVMTQSPLSLPVTPGEPASISCRSSQSLVYSNGDTYLHWYLQKPGQSPKLLIYKVSNRFSGVPDRFSGSGSGTDFTLKISRVEAEDVGVYFCSQSTHVPWTFGQGTKVEIKR
On to B2, for which the binding entry in assay [1] is “binds”.

B3: VK-S antibody (mC2 VK-S combined with chimeric C2 VH) (antibody, V domains shown)
VH: EVQLVESGGGLVQPGGSLKLSCAASGFTFSSYGMSWVRQTPDKRLELVASINSNGGSTYYPDSVKGRFTISRDNAKNTLYLQMSSLKSEDTAMYYCASGDYWGQGSTLTVSS
VL: DVVMTQTPLSLPVSLGDQASISCRSSQSLVYSNGDTYLHWYLQKPGQSPKLLIYKVSSRFSGVPDRFSGSGSGTDFTLKISRVEAEDLGVYFCSQSTHVPWTFGGGTKLEIK
Take B3: in [2], the binding entry was “binds”.

B4: VK-R antibody (mC2 VK-R combined with chimeric C2 VH) (antibody, V domains shown)
VH: EVQLVESGGGLVQPGGSLKLSCAASGFTFSSYGMSWVRQTPDKRLELVASINSNGGSTYYPDSVKGRFTISRDNAKNTLYLQMSSLKSEDTAMYYCASGDYWGQGSTLTVSS
VL: DVVMTQTPLSLPVSLGDQASISCRSSQSLVYSNGDTYLHWYLQKPGQSPKLLIYRVSNRFSGVPDRFSGSGSGTDFTLKISRVEAEDLGVYFCSQSTHVPWTFGGGTKLEIK
Regarding B4, the binding entry in [2] is “binds”.

B5: humanized antibody C2 HuVH2/HuVK1 (antibody, human IgG4 S228P, kappa, V domains shown)
VH: EVQLVESGGGLVQPGGSLRLSCAASGFTFSSYGMSWVRQAPGKGLEWVASINSNGGSTYYPDSVKGRFTISRDNAKNSLYLQMNSLRAEDTAVYYCASGDYWGQGTTVTVSS
VL: DIVMTQSPLSLPVTPGEPASISCRSSQSLVYSNGDTYLHWYLQKPGQSPQLLIYKVSNRFSGVPDRFSGSGSGTDFTLKISRVEAEDVGVYYCSQSTHVPWTFGQGTKVEIKR
In the case of B5, the binding entry in [1] is “binds”.

B6: humanized monoclonal antibody hC2 (antibody, human IgG4 S228P, kappa, V domains shown)
VH: EVQLVESGGGLVQPGGSLRLSCAASGFTFSSYGMSWVRQAPGKGLELVASINSNGGSTYYPDSVKGRFTISRDNAKNSLYLQMNSLRAEDTAVYYCASGDYWGQGTTVTVSS
VL: DIVMTQSPLSLPVTPGEPASISCRSSQSLVYSNGDTYLHWYLQKPGQSPQLLIYKVSNRFSGVPDRFSGSGSGTDFTLKISRVEAEDVGVYYCSQSTHVPWTFGQGTKVEIKR
Turning to B6, the binding result in [4], in assay [5], in [6], in [7], in assay [8] and in assay [9] was “binds” in each case. The binding result in [10], in [11] and in assay [12] was “binds” each time.

B7: C2 HuVH AF version 2 combined with the chimeric C2 kappa chain (antibody, V domains shown)
VH: EVQLVESGGGLVQPGGSLRLSCAASGFTFSSYGMSWVRQAPGKGLEWVASINSNGGSTYYPDSVKGRFTISRDNAKNSLYLQMNSLRAEDTAVYYCASGDYWGQGTTVTVSS
VL: DVVMTQTPLSLPVSLGDQASISCRSSQSLVYSNGDTYLHWYLQKPGQSPKLLIYKVSNRFSGVPDRFSGSGSGTDFTLKISRVEAEDLGVYFCSQSTHVPWTFGGGTKLEIK
Take B7: the binding entry in [2] is “binds”.
